Data published in publication PMC12147176, “Unstructured protein domains stabilize RNA binding and mediate RNA folding by AUF1”.

Key:
[1] = test system: T1, His6-p37AUF1 W87F (human); assay: Trp fluorescence and iodide quenching; settings: 2 uM each, KSV 6.34 M-1, not significant; recombinant protein; residues 1-287; protein details: N-term His6
T1 sequence (looked up): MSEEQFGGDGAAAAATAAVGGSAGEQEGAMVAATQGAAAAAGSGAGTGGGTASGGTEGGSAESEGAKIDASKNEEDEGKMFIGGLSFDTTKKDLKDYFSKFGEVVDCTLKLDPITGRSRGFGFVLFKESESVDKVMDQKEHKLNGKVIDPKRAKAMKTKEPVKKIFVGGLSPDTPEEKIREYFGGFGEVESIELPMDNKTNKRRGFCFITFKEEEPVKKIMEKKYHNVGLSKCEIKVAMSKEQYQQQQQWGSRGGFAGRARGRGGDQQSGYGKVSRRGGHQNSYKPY

[2] = test system: T2, His6-p37AUF1(78-287) (human); assay: fluorescence anisotropy; settings: first site (Kd1), 50 mM KCl; Anisotropy: 10 mM Tris-HCl pH 8.0, 100 mM KCl (50 mM for Fl-ARE2), 0.5 mM EDTA, 0.1 ug/ul acetylated BSA, 1 ug/ul heparin, 2 mM DTT, 25 C, RNA 0.2-0.4 nM; recombinant protein; residues 78-287; protein details: N-term MSHHHHHHGT; label: 5' fluorescein
T2 sequence (looked up): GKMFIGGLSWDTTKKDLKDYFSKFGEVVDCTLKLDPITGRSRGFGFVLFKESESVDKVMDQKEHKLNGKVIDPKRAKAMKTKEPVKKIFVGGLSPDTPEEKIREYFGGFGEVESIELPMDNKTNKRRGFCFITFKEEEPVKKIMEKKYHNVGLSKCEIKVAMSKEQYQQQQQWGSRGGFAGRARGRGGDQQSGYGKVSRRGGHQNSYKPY

Row | Sequence | binding result [1] | Kd [2] [nM]
1 | UGGCCAAUGCCCUGGCUCACAAAUACCACUG [Rβ (unlabeled)] | no binding | 
2 | GUGAUUAUUUAUUAUUUAUUUAUUAUUUAUUUAUUUAG [Fl-ARE2] |  | 104

For some assays here: Negatives hold for the conditions tested. Where a protein sequence is shown, tags need not be part of it. For some assays here: The exact form of at least one protein or probe is not confirmed.
